Reference: PubChem BioAssay AID2685 (National Center for Advancing Translational Sciences (NCATS), 2010)
Hit rate of the full screen: of about 320,000 compounds, about 2,100 (0.66%) were called active. Inconclusive means that the source gave no clear call. Such entries were picked first, then a sample of the others. Calls come from the whole dose curve; as a rule, active = well fitted inhibition curve with a large enough effect in the signal ratio, with a control signal flat (not every such curve was filed as active); inconclusive = small, poorly fitted or top-dose-only effect, or effect the other way, or a change in a side signal; inactive = flat fitted curve, though single readings scatter; the % refers to the signal ratio. Potencies beside an inconclusive call are fits to weak or partial responses and may not hold up.

Experiment: qHTS Assay for Lipid Storage Modulators in Drosophila S3 Cells
Conditions: BODIPY lipid droplet fluorescence, 18-24 h, cells fed with added oleic acid; lipid storage change, negative = inhibition: at 46.1 µM (top of the series) unless noted
In short: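 Laser-scanning cytometry quantifies lipid droplet accumulation (500–530 nm total intensity; droplet/cell object ratio) in oleic acid-fed (400 uM added) Drosophila S3 cells treated with a concentration series. 20 uM Triacsin C defined 100% inhibition.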
% is set by controls: 0 for no effect and ±100 for the full control effect; potency is the fitted concentration of half-maximal effect.

SMILES	Potency	lipid storage change, negative = inhibition	outcome
CC(C)c1ccc(NC(=O)C2CCCN(S(=O)(=O)c3cnc[nH]3)C2)cc1 (stereo not drawn)	inconclusive: 3.26 µM [activator, single point]	–	–
O=C(NCc1ccccc1CN1CCCC1)C1CCN(S(=O)(=O)c2ccc(F)c(F)c2)CC1	inconclusive: 23.1 µM [falling, single point]	–	–
CC(=O)NCCN1C(=O)S/C(=C\c2cccs2)C1=O	–	inconclusive: -64.3% [at 0.00295 µM]	–
CCOc1ccc(N(CC(=O)NC2CCCC2)C(=O)c2ccc(C)s2)cc1	inconclusive: 0.231 µM [activator, single point]	–	–
O=C(Cc1csc(Nc2nc(=S)[nH]c3ccccc23)n1)NCc1ccccc1Cl	–	inconclusive: 24.2%	–
CCOc1ccc(NC(=O)CN(C)C(=O)c2ccc(COc3ccccc3)o2)cc1OCC	–	–	inactive [at 46.1 µM]
C=CCn1cc(C(=O)OC)c(=O)c2cc(S(=O)(=O)N(CC)CC)ccc21	inconclusive: 6.51 µM [falling, single point]	–	–
CCNC(=S)NNC(=O)Cn1nc(C)cc1C	–	inconclusive: 18.1%	–
Cc1ccc2[nH]c(-c3ccccc3)c(CN3CCOCC3)c(=O)c2c1	–	inconclusive: 0.6%	–
Cc1cc(C)c(CSc2ncc(-c3ccc([N+](=O)[O-])cc3)[nH]2)c(C)c1	inconclusive: 29.1 µM [cytotoxic, single point]	–	–
O=C(Nc1cccc(S(=O)(=O)N2CCCCC2)c1)C1CCC1	–	inconclusive: 65%	–
CCc1cc(C(=O)c2ccc(OC)cc2)c(NC(=O)CN2CCCC2)s1	–	inconclusive: 5.57%	–
COCCN(CCOC)S(=O)(=O)c1ccc(C(=O)Nc2nc(C)c(C(C)=O)s2)cc1	–	inconclusive: -2.36%	–
Cc1cc(C)c2cc(C(=O)N3CCC(N4CCCCC4)CC3)[nH]c2c1	inconclusive: 32.6 µM [rising, single point]	–	–
CCOC(=O)CC1=NS(=O)(=O)c2ccccc2N1	–	inactive: -1.16%	–
COC(=O)[C@@H]1CCCN1Cc1c(C(=O)N2CCCCC2)nc2c(C)cccn12	–	inconclusive: 24.4%	–
CC(=O)C1=C(O)C(=O)N(c2cc(C(C)(C)C)on2)C1c1ccc(C(C)C)cc1 (stereo not drawn)	–	inconclusive: -10.7%	–
CC1CC(C)CN(C(=S)NC2CCCCC2)C1 (stereo not drawn)	–	inconclusive: -1.25%	–
CC(C)Sc1nc(N2CCCC2)c2c(c1C#N)CC(C)(C)OC2	–	inconclusive: 21.4%	–

Entries of single compounds, looked up by structure.
CCOc1ccc(NC(=O)CN(C)C(=O)c2ccc(COc3ccccc3)o2)cc1OCC in the list: outcome: inactive [at 46.1 µM]
COC(=O)[C@@H]1CCCN1Cc1c(C(=O)N2CCCCC2)nc2c(C)cccn12 in the list: lipid storage change, negative = inhibition: inconclusive: 24.4%

More compounds follow:

SMILES	Potency	lipid storage change, negative = inhibition	outcome
CC(C)C(=O)N1CCN(c2ccccc2NC(=O)c2cccc3ccccc23)CC1	–	inconclusive: -38.4%	–
C/C=C(\C)CN1CCC(n2nccc2NC(=O)CCCc2ccccc2)CC1	inconclusive: 10.3 µM [activator, partial curve, poor fit]	–	–
COc1ccc(CCNC(=S)N2CCC(C(N)=O)CC2)cc1	–	inconclusive: -35.5%	–
Cc1cc(C(=O)OCC(=O)N2c3ccccc3CC2C)c(C)o1 (stereo not drawn)	inconclusive: 3.26 µM [rising, full curve]	–	–
CCCC(=O)Nc1c2c(nn1-c1cccc(Cl)c1)CS(=O)(=O)C2	inconclusive: 0.58 µM [activator, single point]	–	–
COc1ccc(CCNC(=O)c2cccs2)cc1OC	–	inconclusive: -23.7% [at 9.22 µM]	–
Cc1ccc2cc3c(NC(=O)c4ccco4)nn(C)c3nc2c1	–	inconclusive: -28.2%	–
Clc1ccc(-c2nnnn2-c2ccc(Cl)c(Cl)c2)cc1Cl	inconclusive: 20.6 µM [rising, partial curve]	–	–
Cc1ccc2c(c1)C(c1ccccc1)N(C(=O)c1ccc(Br)cc1)CC(=O)N2 (stereo not drawn)	–	inconclusive: 14.4%	–
COCCC(=O)N(Cc1ccc2c(c1)OCO2)C(C(=O)NC1CCCCC1)c1ccncc1 (stereo not drawn)	–	inconclusive: 15.6%	–
COc1cc2[nH]c(=O)n(CCCC(=O)NC3CCCCC3)c(=O)c2cc1OC	inconclusive: 0.651 µM [activator, single point]	–	–
CCn1c(SCC(=O)N2CCCCC2)nc2c(c1=O)SC(C)C2 (stereo not drawn)	–	inconclusive: -0.334%	–
Cc1ccc(SCc2c(C(=O)N/N=C/c3cccnc3)nnn2-c2nonc2N)cc1	inconclusive: 32.6 µM [falling, single point]	–	–
CCN(CC)c1ccc(/C=c2\sc3nc4ccccc4n3c2=O)c(O)c1	inconclusive: 29.1 µM [falling, single point]	–	–
COc1ccc(N2C(=O)/C(=C/c3ccc([N+](=O)[O-])cc3)N=C2C)c(OC)c1	–	inactive: 12.2%	–
O=C(O)c1cccc(S(=O)(=O)Nc2cccc(S(=O)(=O)N3CCCC3)c2)c1	–	inconclusive: 92.4%	–
Cc1ccc2[nH]c(=O)c(CN(Cc3cccnc3)Cc3nnnn3CCN3CCOCC3)cc2c1	inconclusive: 6.51 µM [rising, single point]	–	–
Cn1c(SCc2cccc(Br)c2)nc2ccccc2c1=O	inconclusive: 29.1 µM [falling, single point]	–	–
O=C(NC1CCCCC1)C(c1ccccc1F)N(C(=O)c1csnn1)C1CCCC1 (stereo not drawn)	inconclusive: 0.231 µM [activator, full curve, poor fit]	–	–
